Among the data in PMC5564716 are binding values, retold here.

Amino acid sequences for entries named in this document (tags omitted).
UniProt Q12888: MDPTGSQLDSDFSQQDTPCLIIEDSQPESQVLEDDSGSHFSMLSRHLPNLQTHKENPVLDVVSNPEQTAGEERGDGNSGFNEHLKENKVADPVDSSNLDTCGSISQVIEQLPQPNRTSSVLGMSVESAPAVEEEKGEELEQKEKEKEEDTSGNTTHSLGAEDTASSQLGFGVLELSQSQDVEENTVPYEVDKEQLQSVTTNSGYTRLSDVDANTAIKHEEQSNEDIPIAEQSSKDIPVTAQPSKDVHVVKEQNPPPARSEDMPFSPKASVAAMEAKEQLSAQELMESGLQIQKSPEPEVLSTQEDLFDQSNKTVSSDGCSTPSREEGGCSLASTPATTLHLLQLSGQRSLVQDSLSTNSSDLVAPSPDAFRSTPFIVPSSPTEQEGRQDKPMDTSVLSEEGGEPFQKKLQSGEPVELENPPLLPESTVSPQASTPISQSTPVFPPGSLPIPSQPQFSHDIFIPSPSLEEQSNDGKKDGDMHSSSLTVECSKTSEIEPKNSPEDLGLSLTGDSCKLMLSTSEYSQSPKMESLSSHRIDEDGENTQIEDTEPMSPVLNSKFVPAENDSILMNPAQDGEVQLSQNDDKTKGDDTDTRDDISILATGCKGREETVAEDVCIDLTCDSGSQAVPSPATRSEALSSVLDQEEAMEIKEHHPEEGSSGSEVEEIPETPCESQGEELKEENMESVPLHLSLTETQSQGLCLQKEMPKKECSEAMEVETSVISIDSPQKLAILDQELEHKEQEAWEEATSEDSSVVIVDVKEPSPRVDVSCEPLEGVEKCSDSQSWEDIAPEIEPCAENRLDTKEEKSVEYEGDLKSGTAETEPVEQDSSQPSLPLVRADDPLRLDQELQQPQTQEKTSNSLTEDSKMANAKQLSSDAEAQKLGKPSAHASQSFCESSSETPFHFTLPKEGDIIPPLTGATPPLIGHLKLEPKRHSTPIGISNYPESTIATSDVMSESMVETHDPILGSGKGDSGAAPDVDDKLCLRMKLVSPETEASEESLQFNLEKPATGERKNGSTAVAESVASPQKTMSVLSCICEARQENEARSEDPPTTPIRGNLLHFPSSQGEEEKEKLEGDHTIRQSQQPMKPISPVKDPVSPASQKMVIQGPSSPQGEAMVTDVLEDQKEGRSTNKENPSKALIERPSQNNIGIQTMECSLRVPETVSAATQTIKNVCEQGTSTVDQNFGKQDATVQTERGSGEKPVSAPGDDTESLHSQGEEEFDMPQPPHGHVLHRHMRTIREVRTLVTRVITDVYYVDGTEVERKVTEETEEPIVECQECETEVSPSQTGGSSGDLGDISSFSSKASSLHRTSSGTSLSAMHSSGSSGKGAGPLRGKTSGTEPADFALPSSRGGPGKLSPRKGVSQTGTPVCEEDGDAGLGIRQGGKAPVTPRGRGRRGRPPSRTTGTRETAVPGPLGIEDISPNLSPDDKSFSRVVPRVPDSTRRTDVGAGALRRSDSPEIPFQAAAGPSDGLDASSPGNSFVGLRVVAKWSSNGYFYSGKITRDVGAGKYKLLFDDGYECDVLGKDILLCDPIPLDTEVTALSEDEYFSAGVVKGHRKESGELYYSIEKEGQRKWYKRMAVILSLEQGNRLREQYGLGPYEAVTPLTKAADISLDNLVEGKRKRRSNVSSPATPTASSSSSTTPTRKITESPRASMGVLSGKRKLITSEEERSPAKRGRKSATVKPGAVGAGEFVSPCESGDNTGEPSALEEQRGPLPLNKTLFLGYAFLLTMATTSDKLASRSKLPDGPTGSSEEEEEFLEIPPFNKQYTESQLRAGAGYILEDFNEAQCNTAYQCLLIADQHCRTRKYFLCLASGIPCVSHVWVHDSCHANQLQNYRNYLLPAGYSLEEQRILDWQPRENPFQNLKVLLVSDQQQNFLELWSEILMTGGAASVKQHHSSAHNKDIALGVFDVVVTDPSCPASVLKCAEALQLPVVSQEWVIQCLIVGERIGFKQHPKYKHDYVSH

No constants are given. Whether binding was seen depends on the method and setting. In cells and extracts the contact can be indirect. A yes stands for co-enrichment or nearness to the bait. Other partners may have been found.

This assay concerns the target tumor suppressor p53-binding protein 1 (53BP1), endogenous (human (endogenous in U2OS)) (UniProt Q12888). Nature of the assay: affinity purification with mass spectrometry; 53BP1 co-IP complex from human cells after nocodazole (NOC) synchronization, mass spectroscopy screening.

B1: mitotic centromere-associated kinesin (MCAK), endogenous (protein, UniProt Q99661 1-725)
chain: MAMDSSLQARLFPGLAIKIQRSNGLIHSANVRTVNLEKSCVSVEWAEGGATKGKEIDFDDVAAINPELLQLLPLHPKDNLPLQENVTIQKQKRRSVNSKIPAPKESLRSRSTRMSTVSELRITAQENDMEVELPAAANSRKQFSVPPAPTRPSCPAVAEIPLRMVSEEMEEQVHSIRGSSSANPVNSVRRKSCLVKEVEKMKNKREEKKAQNSEMRMKRAQEYDSSFPNWEFARMIKEFRATLECHPLTMTDPIEEHRICVCVRKRPLNKQELAKKEIDVISIPSKCLLLVHEPKLKVDLTKYLENQAFCFDFAFDETASNEVVYRFTARPLVQTIFEGGKATCFAYGQTGSGKTHTMGGDLSGKAQNASKGIYAMASRDVFLLKNQPCYRKLGLEVYVTFFEIYNGKLFDLLNKKAKLRVLEDGKQQVQVVGLQEHLVNSADDVIKMIDMGSACRTSGQTFANSNSSRSHACFQIILRAKGRMHGKFSLVDLAGNERGADTSSADRQTRMEGAEINKSLLALKECIRALGQNKAHTPFRESKLTQVLRDSFIGENSRTCMIATISPGISSCEYTLNTLRYADRVKELSPHSGPSGEQLIQMETEEMEACSNGALIPGNLSKEEEELSSQMSSFNEAMTQIRELEEKAMEELKEIIQQGPDWLELSEMTEQPDYDLETFVNKAESALAQQAKHFSALRDVIKALRLAMQLEEQASRQISSKKRPQ
As to B1, the binding result was “binds”.
